Test results as given in doi:10.1101/2021.10.13.464316 (bioRxiv, 2021).
No constants are given. Whether binding was seen depends on the method and setting. For some of these results: In cells and extracts the contact can be indirect. Some binding calls cover weakened binding; strength is not graded here. Where a sequence is shown, tags or fusion partners need not be part of it.

Sequences of proteins named here, by UniProt entry; tags and fusion partners are left off. A change or cut given only in a name is not applied to a line headed by its entry. A line that says so, or that is headed by a name, gives the form on record, which may keep a tag or linker. Residues count along the entry.
UniProt Q9SCZ4: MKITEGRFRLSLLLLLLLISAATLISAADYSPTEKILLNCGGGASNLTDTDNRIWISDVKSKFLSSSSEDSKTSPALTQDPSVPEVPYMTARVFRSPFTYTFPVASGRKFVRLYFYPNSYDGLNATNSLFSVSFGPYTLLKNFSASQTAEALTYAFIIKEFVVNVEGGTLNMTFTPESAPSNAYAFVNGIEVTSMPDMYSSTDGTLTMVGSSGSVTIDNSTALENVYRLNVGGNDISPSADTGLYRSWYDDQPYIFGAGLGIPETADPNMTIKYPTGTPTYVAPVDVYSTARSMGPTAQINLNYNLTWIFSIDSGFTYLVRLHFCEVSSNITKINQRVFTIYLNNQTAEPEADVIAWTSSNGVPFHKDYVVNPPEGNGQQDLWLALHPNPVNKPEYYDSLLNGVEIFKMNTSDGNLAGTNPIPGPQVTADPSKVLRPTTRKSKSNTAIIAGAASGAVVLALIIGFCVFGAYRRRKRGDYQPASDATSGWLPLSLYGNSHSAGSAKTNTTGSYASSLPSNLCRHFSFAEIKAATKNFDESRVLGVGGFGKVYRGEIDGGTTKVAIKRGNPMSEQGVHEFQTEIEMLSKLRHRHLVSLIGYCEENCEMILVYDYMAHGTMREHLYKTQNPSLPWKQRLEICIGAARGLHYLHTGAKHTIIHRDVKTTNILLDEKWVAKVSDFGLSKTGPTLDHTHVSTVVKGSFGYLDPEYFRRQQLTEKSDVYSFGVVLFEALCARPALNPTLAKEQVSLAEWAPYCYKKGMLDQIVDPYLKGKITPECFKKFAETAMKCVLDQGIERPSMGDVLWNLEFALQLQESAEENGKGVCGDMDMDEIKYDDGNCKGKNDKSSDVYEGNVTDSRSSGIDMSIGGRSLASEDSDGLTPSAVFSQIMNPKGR
FER–nVenus: residues 28-895 of Q9SCZ4
cytoplasmic domain of FERONIA fused to the GAL4 DNA-binding domain (BD-FER-CD): residues 469-895 of Q9SCZ4
UniProt Q9FL28, residues 870-1155: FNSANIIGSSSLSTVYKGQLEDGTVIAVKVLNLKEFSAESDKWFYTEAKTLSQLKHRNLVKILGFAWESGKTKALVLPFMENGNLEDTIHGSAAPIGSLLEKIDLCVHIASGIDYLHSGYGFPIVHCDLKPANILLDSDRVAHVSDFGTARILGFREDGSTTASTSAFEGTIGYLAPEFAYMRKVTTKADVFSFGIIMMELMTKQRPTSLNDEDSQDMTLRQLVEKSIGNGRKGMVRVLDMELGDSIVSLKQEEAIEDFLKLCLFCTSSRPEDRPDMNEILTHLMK
UniProt O22476, residues 814-1196: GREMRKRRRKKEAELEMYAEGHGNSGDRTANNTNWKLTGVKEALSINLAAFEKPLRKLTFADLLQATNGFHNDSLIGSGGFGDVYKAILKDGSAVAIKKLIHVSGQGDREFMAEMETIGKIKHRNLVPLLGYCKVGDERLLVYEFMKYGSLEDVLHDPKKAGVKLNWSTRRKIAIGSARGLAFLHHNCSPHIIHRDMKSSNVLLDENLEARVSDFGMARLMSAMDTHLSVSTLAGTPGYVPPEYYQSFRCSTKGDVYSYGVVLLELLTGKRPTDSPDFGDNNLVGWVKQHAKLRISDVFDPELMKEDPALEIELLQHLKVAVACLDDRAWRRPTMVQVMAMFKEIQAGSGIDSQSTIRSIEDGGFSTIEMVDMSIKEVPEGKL

B1: CAR1–cCFP (protein, UniProt Q9FHP6 1-168)
chain: MENLVGLLRIHVKRGVNLAIRDISSSDPYIVVHCGKQKLKTRVVKHSVNPEWNDDLTLSVTDPNLPIKLTVYDYDLLSADDKMGEAEFHIGPFIEAIKFAHQLGPGLPNGTIIKKIEPSRKNCLSESSHIVLNQGKIVQNMFLRLQHVECGEVELQLEWIDVPGSRGI
B2: CAR4–cCFP (protein, UniProt Q9LVH4 1-177)
chain: MTTACPARTSSLMDDLLGLLRIRIKRGVNLAVRDISSSDPYVVVKMGKQKLKTRVINKDVNPEWNEDLTLSVTDSNLTVLLTVYDHDMFSKDDKMGDAEFEIKPYIEALRMQLDGLPSGTIVTTVKPSRRNCLAEESRVTWVDGKLVQDLVLRLRHVECGEVEAQLQWIDLPGSKGL
B3: CAR5–cCFP (protein, UniProt Q9LP65 1-200)
chain: MIVSFLYFSSLFPTSLRKINLVAGEKHKDRRMKPSLMDSLLGLLRIRIKRGVNLAVRDLNSSDPYVVVKMAKQKLKTRVIYKNVNPEWNEDLTLSVSDPNLTVLLTVYDYDTFTKDDKMGDAEFGIKPFVNALKMHLHDLPSGTIVTTVQPSRDNCLAEESRVIWSDGKLVQDIVLRLRHVECGEVEAQLQWIDLPGKGL
B4: CAR6–cCFP (protein, UniProt Q9S764 1-174)
chain: MEKTEEEVEMKELVGLVRILVKRGIDLARRDALSSDPFVVITMGPQKLKSFTVKNNCNPEWNEELTLAIEDPNEPVKLMVYDKDTFTADDKMGDAQIDMKPFLDVHKLGLKELPHGKELKRIVPTRDNCLSEDSIIVSDNGKIVQDMILLLKNVECGKVEIQLEWLKNPGGSGL
B5: CAR9–cCFP (protein, UniProt Q9S7J9 1-185)
chain: MEDKPLGILRVHVKRGINLAIRDATTSDPYVVITLANQKLKTRVINNNCNPVWNEQLTLSIKDVNDPIRLTVFDKDRFSGDDKMGDAEIDFRPFLEAHQMELDFQKLPNGCAIKRIRPGRTNCLAEESSITWSNGKIMQEMILRLKNVECGEVELMLEWTDGPGCKGLGREGSKKTPWMPTKRLD
B6: CAR10–cCFP (protein, UniProt Q9ZVF1 1-180)
chain: MDQKPLGLLTIHVKRGINLAIRDHRSSDPYIVLNVADQTLKTRVVKKNCNPVWNEEMTVAIKDPNVPIRLTVFDWDKFTGDDKMGDANIDIQPYLEALKMGMELLRLPNGCAIKRVQPSRHNCLSDESSIVWNNGKITQDLILRLNNVECGEIEIMLEWHEGAGCRGITSSSKGGGSSST
B7: CAR9 (prey found in the yeast two-hybrid screen) (protein, UniProt Q9S7J9 1-185)
chain: B5 chain
B8: AD-CAR1 (protein, UniProt Q9FHP6 1-168)
chain: B1 chain
B9: AD-CAR9 (protein, UniProt Q9S7J9 1-185)
chain: B5 chain
B10: AD-CAR4 (protein, UniProt Q9LVH4 1-177)
chain: B2 chain
B11: AD-CAR5 (protein, UniProt Q9LP65 1-200)
chain: B3 chain
B12: AD-CAR6 (protein, UniProt Q9S764 1-174)
chain: B4 chain
B13: AD-CAR10 (protein, UniProt Q9ZVF1 1-180)
chain: B6 chain
B14: AD-CAR3 (protein, UniProt Q9C6B7 1-168)
chain: MSLMDNLLGILRVRVQRGVNLAVRDVSSSDPYVVLKLGRQKLKTKVVKQNVNPQWQEDLSFTVTDPNLPLTLIVYDHDFFSKDDKMGDAEIDLKPYIEALRMELSGLPDGTIISTIGPSRGNCLAEESYIRWINDRIVQHICLRLRNVERGEVEIELQWIDLPGSKGL
B15: AD-CAR7 (protein, UniProt Q9SSL1 1-165)
chain: MEELVGLLRIRVKRGINLAQRDTLSSDPFVVITMGSQKLKTRVVENNCNPEWNEELTLALRHPDEPVNLIVYDKDTFTSHDKMGDAKIDIKPFLEVHKMGLQELPDGTEIKRVVPNRENCLAEASSIVSNNGKIVQNMILLLRNVECGEVEIQLEWIDIPGSRGL
B16: AD-CAR2 (protein, UniProt Q9C8Y2 1-174)
chain: MENMLGLLRLHVIRGVNLAIRDSQSSDPYVIVRMGKQKLRTRVMKKNLNTEWNEDLTLSVTDPTLPVKIMVYDRDRFSRDDKMGDAIFHIDPFLEAIRIQNQLGGLPEGTVIMKIQASRQNCLSEESKIVWHKGKIVQNMFLKLQNVERGEIELQLEWIDVSGALTDDAEDVAF

molecular target: FER–nVenus (Arabidopsis thaliana) (UniProt Q9SCZ4); assay: split reporter

Question: For B1, which binding is on record?
Answer: Its binding is “binds”.

Question: For B2, which binding is on record?
Answer: Its binding is “binds”.

Question: B3 was tested. Which binding did it give?
Answer: Its binding is “binds”.

Question: B4 was tested. Which binding did it give?
Answer: The binding was “binds”.

Question: B5 was tested. Which binding did it give?
Answer: The binding was “binds”.

Question: With B6 as the binder, how does the binding read?
Answer: Its binding is “binds”.

molecular target: cytoplasmic domain of FERONIA fused to the GAL4 DNA-binding domain (BD-FER-CD) (Arabidopsis thaliana) (UniProt Q9SCZ4); assay: two-hybrid

Question: B7 was tested. Which binding did it give?
Answer: Its binding is “binds”.

Question: With B8 as the binder, how does the binding read?
Answer: The binding was “binds”.

Question: For B9, which binding is on record?
Answer: Its binding is “binds”.

Question: With B10 as the binder, how does the binding read?
Answer: Its binding is “binds”.

Question: For B11, which binding is on record?
Answer: Its binding is “binds”.

Question: B12 was tested. Which binding did it give?
Answer: Its binding is “binds”.

Question: With B13 as the binder, how does the binding read?
Answer: Its binding is “binds”.

Question: How did the binding turn out when B14 was run?
Answer: The binding was “no binding”.

Question: B15 was tested. Which binding did it give?
Answer: The binding was “no binding”.

Question: With B16 as the binder, how does the binding read?
Answer: The binding was “no binding”.

molecular target: cytoplasmic domain of FLS2 fused to the GAL4 DNA-binding domain (Arabidopsis thaliana) (UniProt Q9FL28); assay: two-hybrid

Question: Which binding does the source give for B9 here?
Answer: Its binding is “no binding”.

molecular target: cytoplasmic domain of BRI1 fused to the GAL4 DNA-binding domain (Arabidopsis thaliana) (UniProt O22476); assay: two-hybrid

Question: B9 was tested. Which binding did it give?
Answer: Its binding is “no binding”.

molecular target: cytoplasmic domain of FERONIA fused to the GAL4 DNA-binding domain (BD-FER-CD) (Arabidopsis thaliana) (UniProt Q9SCZ4); assay: two-hybrid; remark: another data set of the same source

Question: B9 was tested. Which binding did it give?
Answer: The binding was “binds”.
